Measurements: PMC7819943, “Rice protein-binding microarrays: a tool to detect cis-acting elements near promoter regions in rice”
Some of the results follow.

target: T1, OsSMF1 (Oryza sativa, UniProt Q6ZLB0 1-436); test: protein-binding microarray (RPBM); PBS, 2% BSA, 51.3 ng/ul salmon testes DNA, 50 uM zinc acetate, 200 nM TF, 25 C, 1 h; high values mean tight binding; settings: protein: recombinant; tags: N-terminal polyhistidine and DsRed monomer fusion (pET32a); chain copies: 2; label: CyDye5-dUTP incorporated in the synthesized complementary strand; 3' TTTTT single-stranded linker to array surface; dsDNA, one strand shown
T1 sequence: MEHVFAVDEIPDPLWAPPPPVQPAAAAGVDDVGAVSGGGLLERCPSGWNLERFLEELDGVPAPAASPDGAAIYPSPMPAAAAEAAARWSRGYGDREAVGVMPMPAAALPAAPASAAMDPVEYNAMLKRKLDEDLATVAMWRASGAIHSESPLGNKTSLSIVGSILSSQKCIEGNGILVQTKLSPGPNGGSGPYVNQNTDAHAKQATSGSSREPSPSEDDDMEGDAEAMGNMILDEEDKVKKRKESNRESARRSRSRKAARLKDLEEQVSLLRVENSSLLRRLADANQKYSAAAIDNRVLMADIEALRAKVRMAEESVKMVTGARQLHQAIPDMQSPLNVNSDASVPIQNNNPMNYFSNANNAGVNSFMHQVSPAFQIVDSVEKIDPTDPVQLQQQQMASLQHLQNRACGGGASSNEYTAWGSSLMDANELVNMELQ
Procedure, shortened: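 Ni–NTA purification followed expression in E. coli BL21-CodonPlus of transcription factors fused N-terminally to a polyhistidine tag and DsRed. At 200 nM in PBS with 2% BSA, salmon testes DNA and 50 µM zinc acetate, the protein was incubated for 1 h at 25 °C with a custom Agilent array that had been primer-extended with Cy5-dUTP and blocked with 2% BSA. After washing, the array was read on an Axon 4000B scanner. The binding signal is per-feature fluorescence intensity in arbitrary units.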

| Sequence | binding signal |
| --- | --- |
| AGGAAATGAGTGATCTTGCAATGCTGGAAATACTGGATTTCGGAGTCACCTAGTGCAG | 4990 fluorescence intensity (a.u.) |
| AACGACATATGTACTTTGTGTCTTTTGACTCTTTCAGGTTCGGAGTCACCTAGTGCAG | 4770 fluorescence intensity (a.u.) |
| TACGCCATGTACACGTGCGCCACCTCCCTCTGCGCCTCCACGGAGTCACCTAGTGCAG | 8020 fluorescence intensity (a.u.) |
| CATCGGACGTCGTCATCGGACGGGTCTTGACTCTTGACCCCGGAGTCACCTAGTGCAG | 4640 fluorescence intensity (a.u.) |
| CCCGAGAGCGAACGGTCGTCTGCCACGTCATTTTCGCCGCCGGAGTCACCTAGTGCAG | 28200 fluorescence intensity (a.u.) |
| GCCCTCTGGGAGGGCAGAGGACGGCGAAAATGACGTGGCACGGAGTCACCTAGTGCAG | 33600 fluorescence intensity (a.u.) |
| CACGGACGTTACGTGGCACAGTACAGTTCTTTGTTTGACGCGGAGTCACCTAGTGCAG | 6580 fluorescence intensity (a.u.) |
| TGTTGCTCTCTGATCCCTAGGGTTTACTTTCCCCTCCTCCCGGAGTCACCTAGTGCAG | 5570 fluorescence intensity (a.u.) |
| CCAACTTTCCTCGTGGGCTCCACGTGGCAGTGGGGAAAGCCGGAGTCACCTAGTGCAG | 21300 fluorescence intensity (a.u.) |
| CATCCCGTTACAGAGTCTTTCTTTGCAGACACGTACGCCACGGAGTCACCTAGTGCAG | 5940 fluorescence intensity (a.u.) |
| GACTTTTGTGGGAGGCGCTGGTTTCTGCTCTACTCACAGCCGGAGTCACCTAGTGCAG | 3940 fluorescence intensity (a.u.) |
| AAATGTTGATAAACTACGGCAATATTGAGTCATCAATAGCCGGAGTCACCTAGTGCAG | 6260 fluorescence intensity (a.u.) |
| TTACTGCTACCTCCACTTCATGTTATAAGTTGTTTTACCTCGGAGTCACCTAGTGCAG | 3480 fluorescence intensity (a.u.) |
| GTCTAAAACCTTATGCAGTCTGCCATCTGCTGAGTGTTCACGGAGTCACCTAGTGCAG | 3490 fluorescence intensity (a.u.) |
| TACTTGCCATGTCCGGCCATGGCTGCCACCACTCGATCTCCGGAGTCACCTAGTGCAG | 4070 fluorescence intensity (a.u.) |
| GCTACAGTAAATCCGACGTGGTTCGCCCCAGAAGCCGCCCCGGAGTCACCTAGTGCAG | 4000 fluorescence intensity (a.u.) |
| GATGTCATGGGTGCGTTGCCAGATGTGTTCTCCGGTGGCCCGGAGTCACCTAGTGCAG | 3690 fluorescence intensity (a.u.) |
| AGTTAGTTTTGATTAGGTGTCATTTAGTTTTAAATCCCCTCGGAGTCACCTAGTGCAG | 5070 fluorescence intensity (a.u.) |
| GTTATTGAGGATGATTAAAACCGTTTGGTGCCCTGTCATACGGAGTCACCTAGTGCAG | 4660 fluorescence intensity (a.u.) |
| AGATTGACGTTCCGCAAGTTGCTGACGCCACGAACATCGTCGGAGTCACCTAGTGCAG | 6580 fluorescence intensity (a.u.) |
| GAATCAAATCTCTACCGTCCATCCGTCATCTGATTTAATCCGGAGTCACCTAGTGCAG | 3330 fluorescence intensity (a.u.) |

| Sequence | binding signal |
| --- | --- |
| GTTTGTCGTCATGGAGCATCGTCAGCACATCACGGCACCACGGAGTCACCTAGTGCAG | 9400 fluorescence intensity (a.u.) |
| CGCAGTTTGACGTGTTTCCAAGTGATATGTTTTCAGTTCACGGAGTCACCTAGTGCAG | 4550 fluorescence intensity (a.u.) |
| CGCCACCGCATCCAGTCACCTCACCACCACCGCAGCATCACGGAGTCACCTAGTGCAG | 6880 fluorescence intensity (a.u.) |
| GGGTCTTGAAAGAGAAGAATCAAAGACGAACGTGGCATCCCGGAGTCACCTAGTGCAG | 6080 fluorescence intensity (a.u.) |
| TCCTCTCCACTCCCACGTTATCACCTCGCCGCTGTGCTCCCGGAGTCACCTAGTGCAG | 5330 fluorescence intensity (a.u.) |
| ATGTGATGCATGATGATTAGATATGCTTGCATGTTAATTTCGGAGTCACCTAGTGCAG | 3160 fluorescence intensity (a.u.) |
| CATTTCCTGTGGCGTGGTGTTAGCAGAAGCCCTTGTCCACCGGAGTCACCTAGTGCAG | 3340 fluorescence intensity (a.u.) |
| GACAGTCCGACTAACAGCCGTCACGACACTTACTGTTTTGCGGAGTCACCTAGTGCAG | 8310 fluorescence intensity (a.u.) |
| GCTGCAACTAGCTGCCGTGTAGCTAAAGAAAATACAAGCCCGGAGTCACCTAGTGCAG | 3230 fluorescence intensity (a.u.) |
| CAAATGACAGCTGTGTTTAGTTTCACACTAAAATTGAAAGCGGAGTCACCTAGTGCAG | 4370 fluorescence intensity (a.u.) |
| TCGCCGGCATGGGCTCACGGACTCCCGTCACGTGGGCAACCGGAGTCACCTAGTGCAG | 4680 fluorescence intensity (a.u.) |
| TTTGGGGCGCGGGTGGGTGGCTGGGTGCGCGTCGATCGTGCGGAGTCACCTAGTGCAG | 5310 fluorescence intensity (a.u.) |
| CTCCCCTCAACCGTCCGTCCATCCCCTGTCAAGTTCGCCGCGGAGTCACCTAGTGCAG | 3250 fluorescence intensity (a.u.) |
| AATAAGCTACTGACACGTTGCTGTATGCGGTATACTTTGTCGGAGTCACCTAGTGCAG | 3660 fluorescence intensity (a.u.) |
| GTGAGCCCATGGGCCGTGGCCACTTGTGGGCTATGATATGCGGAGTCACCTAGTGCAG | 18000 fluorescence intensity (a.u.) |
| AAGAAGAGTCTGAGACTCTGAGTTGGATGGATAGGGTCCCCGGAGTCACCTAGTGCAG | 3560 fluorescence intensity (a.u.) |
| GCCAGGTGGGCTGGCGCTGAGTGTCCCACGGTCAGCGCCACGGAGTCACCTAGTGCAG | 4010 fluorescence intensity (a.u.) |
| ATCATAGTACTACGAATCTAGACAAGAGGCATATCCAGATCGGAGTCACCTAGTGCAG | 34600 fluorescence intensity (a.u.) |
| TCTAACAACCCTTTTGCTTCCTCTGAATGGCCTTGTCACCCGGAGTCACCTAGTGCAG | 3600 fluorescence intensity (a.u.) |
| CTCTCCTCCAGCCACGTGGCGCCTAGCCCCGCCGCCTACGCGGAGTCACCTAGTGCAG | 23400 fluorescence intensity (a.u.) |
| GAAGAAGATAGCACCGCATGGGTCTGTGCCTTACTTCTTGCGGAGTCACCTAGTGCAG | 38900 fluorescence intensity (a.u.) |

Some of the entries so far, bar-delimited:
Sequence | binding signal
CATCGGACGTCGTCATCGGACGGGTCTTGACTCTTGACCCCGGAGTCACCTAGTGCAG | 4640 fluorescence intensity (a.u.)
GTTATTGAGGATGATTAAAACCGTTTGGTGCCCTGTCATACGGAGTCACCTAGTGCAG | 4660 fluorescence intensity (a.u.)
ATGTGATGCATGATGATTAGATATGCTTGCATGTTAATTTCGGAGTCACCTAGTGCAG | 3160 fluorescence intensity (a.u.)
GACAGTCCGACTAACAGCCGTCACGACACTTACTGTTTTGCGGAGTCACCTAGTGCAG | 8310 fluorescence intensity (a.u.)
GTGAGCCCATGGGCCGTGGCCACTTGTGGGCTATGATATGCGGAGTCACCTAGTGCAG | 18000 fluorescence intensity (a.u.)
GCCAGGTGGGCTGGCGCTGAGTGTCCCACGGTCAGCGCCACGGAGTCACCTAGTGCAG | 4010 fluorescence intensity (a.u.)
GAAGAAGATAGCACCGCATGGGTCTGTGCCTTACTTCTTGCGGAGTCACCTAGTGCAG | 38900 fluorescence intensity (a.u.)
